Common to all, as to assay: co-IP; Hek293T cells transfected 48 h; lysis buffer 150 mM NaCl, 50 mM Tris-HCl pH 7.4, 5% glycerol, 2 mM EDTA, 1% Nonidet P-40; supernatant incubated overnight with rabbit anti-HA antibody, protein A agarose beads 2 h, 4 °C; Western blot with anti-CerS6 or anti-CerS2 antibody
On the technique in general: A western blot detects proteins with antibodies after separation by electrophoresis.

For assay [1], the target named is T1, Hemagglutinin (HA)-tagged CerS2 (human) (UniProt Q96G23).
T1 sequence: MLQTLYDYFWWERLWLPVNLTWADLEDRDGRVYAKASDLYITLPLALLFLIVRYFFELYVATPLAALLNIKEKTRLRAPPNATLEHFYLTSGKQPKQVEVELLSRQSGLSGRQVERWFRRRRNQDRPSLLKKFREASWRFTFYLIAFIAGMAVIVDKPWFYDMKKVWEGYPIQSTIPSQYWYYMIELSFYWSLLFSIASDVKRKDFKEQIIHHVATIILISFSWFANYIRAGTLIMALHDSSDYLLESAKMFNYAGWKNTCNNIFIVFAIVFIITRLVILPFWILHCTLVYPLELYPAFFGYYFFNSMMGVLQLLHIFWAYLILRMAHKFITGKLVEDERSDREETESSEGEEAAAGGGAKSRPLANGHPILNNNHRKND

The target in assay [2] is T2, CerS2^Δ335–380-HA (human) (UniProt Q96G23).
T2 sequence: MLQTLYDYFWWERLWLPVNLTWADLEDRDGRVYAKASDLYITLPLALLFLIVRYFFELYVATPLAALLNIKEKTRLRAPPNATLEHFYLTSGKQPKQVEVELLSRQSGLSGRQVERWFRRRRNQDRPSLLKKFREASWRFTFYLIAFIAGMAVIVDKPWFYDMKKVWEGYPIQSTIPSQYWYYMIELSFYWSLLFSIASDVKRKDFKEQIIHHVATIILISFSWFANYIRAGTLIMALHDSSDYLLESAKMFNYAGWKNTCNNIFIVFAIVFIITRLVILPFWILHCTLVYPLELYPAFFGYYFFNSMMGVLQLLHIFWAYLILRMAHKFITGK

Assay [3] addresses T3, CerS2^Δ347–357-HA (human) (UniProt Q96G23).
T3 sequence: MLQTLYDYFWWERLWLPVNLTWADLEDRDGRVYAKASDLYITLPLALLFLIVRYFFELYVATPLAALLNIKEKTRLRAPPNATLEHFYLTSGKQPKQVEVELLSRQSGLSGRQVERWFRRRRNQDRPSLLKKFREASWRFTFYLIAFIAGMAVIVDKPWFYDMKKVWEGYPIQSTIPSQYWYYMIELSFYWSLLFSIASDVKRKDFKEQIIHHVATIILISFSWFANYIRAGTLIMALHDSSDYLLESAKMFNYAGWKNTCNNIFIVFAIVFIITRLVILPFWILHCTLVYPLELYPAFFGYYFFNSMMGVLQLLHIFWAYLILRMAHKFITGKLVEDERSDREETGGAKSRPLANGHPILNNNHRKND

In assay [4] the target is T4, CerS2^Δ358–364-HA (human) (UniProt Q96G23).
T4 sequence: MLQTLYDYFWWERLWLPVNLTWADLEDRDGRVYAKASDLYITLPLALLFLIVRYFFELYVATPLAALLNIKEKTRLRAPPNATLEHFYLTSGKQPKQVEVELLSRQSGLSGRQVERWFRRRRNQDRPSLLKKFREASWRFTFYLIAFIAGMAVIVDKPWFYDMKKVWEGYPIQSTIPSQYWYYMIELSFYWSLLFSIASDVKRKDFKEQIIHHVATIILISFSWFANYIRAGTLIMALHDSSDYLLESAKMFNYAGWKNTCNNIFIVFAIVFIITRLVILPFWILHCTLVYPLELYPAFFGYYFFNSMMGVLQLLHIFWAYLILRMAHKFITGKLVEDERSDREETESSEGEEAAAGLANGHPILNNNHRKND

Assay [5] addresses T5, CerS2^Δ365–371-HA (human) (UniProt Q96G23).
T5 sequence: T4 sequence with L358G, A359G, N360A, G361K, H362S, P363R, I364P

Numbering of substitutions follows the chain as printed. Results are given in words; binding and its absence hold for the method and conditions named. In cells and extracts the contact can be indirect. Some entries that bind do so weakly or less than the wild type. Sequences can lack the tags named with a protein.

B1: Flag-tagged CerS6 (enzyme, UniProt Q6ZMG9 1-384)
chain: MAGILAWFWNERFWLPHNVTWADLKNTEEATFPQAEDLYLAFPLAFCIFMVRLIFERFVAKPCAIALNIQANGPQIAPPNAILEKVFTAITKHPDEKRLEGLSKQLDWDVRSIQRWFRQRRNQEKPSTLTRFCESMWRFSFYLYVFTYGVRFLKKTPWLWNTRHCWYNYPYQPLTTDLHYYYILELSFYWSLMFSQFTDIKRKDFGIMFLHHLVSIFLITFSYVNNMARVGTLVLCLHDSADALLEAAKMANYAKFQKMCDLLFVMFAVVFITTRLGIFPLWVLNTTLFESWEIVGPYPSWWVFNLLLLLVQGLNCFWSYLIVKIACKAVSRGKVSKDDRSDIESSSDEEDSEPPGKNPHTATTTNGTSGTNGYLLTGSCSMDD
Consider B1, for which the binding entry in assay [1] is reported as “binds”.

B2: CerS6^Δ335–384-Flag (domain or fragment, UniProt Q6ZMG9 1-334)
chain: MAGILAWFWNERFWLPHNVTWADLKNTEEATFPQAEDLYLAFPLAFCIFMVRLIFERFVAKPCAIALNIQANGPQIAPPNAILEKVFTAITKHPDEKRLEGLSKQLDWDVRSIQRWFRQRRNQEKPSTLTRFCESMWRFSFYLYVFTYGVRFLKKTPWLWNTRHCWYNYPYQPLTTDLHYYYILELSFYWSLMFSQFTDIKRKDFGIMFLHHLVSIFLITFSYVNNMARVGTLVLCLHDSADALLEAAKMANYAKFQKMCDLLFVMFAVVFITTRLGIFPLWVLNTTLFESWEIVGPYPSWWVFNLLLLLVQGLNCFWSYLIVKIACKAVSRGK
As to B2, in assay [2], the binding entry is “binds”.

B3: CerS6^Δ348–361-Flag (enzyme, UniProt Q6ZMG9)
chain: MAGILAWFWNERFWLPHNVTWADLKNTEEATFPQAEDLYLAFPLAFCIFMVRLIFERFVAKPCAIALNIQANGPQIAPPNAILEKVFTAITKHPDEKRLEGLSKQLDWDVRSIQRWFRQRRNQEKPSTLTRFCESMWRFSFYLYVFTYGVRFLKKTPWLWNTRHCWYNYPYQPLTTDLHYYYILELSFYWSLMFSQFTDIKRKDFGIMFLHHLVSIFLITFSYVNNMARVGTLVLCLHDSADALLEAAKMANYAKFQKMCDLLFVMFAVVFITTRLGIFPLWVLNTTLFESWEIVGPYPSWWVFNLLLLLVQGLNCFWSYLIVKIACKAVSRGKVSKDDRSDIESSSATTTNGTSGTNGYLLTGSCSMDD
Take B3: in assay [3], the binding entry was “binds”.

B4: CerS6^Δ359–365-Flag (enzyme, UniProt Q6ZMG9)
chain: MAGILAWFWNERFWLPHNVTWADLKNTEEATFPQAEDLYLAFPLAFCIFMVRLIFERFVAKPCAIALNIQANGPQIAPPNAILEKVFTAITKHPDEKRLEGLSKQLDWDVRSIQRWFRQRRNQEKPSTLTRFCESMWRFSFYLYVFTYGVRFLKKTPWLWNTRHCWYNYPYQPLTTDLHYYYILELSFYWSLMFSQFTDIKRKDFGIMFLHHLVSIFLITFSYVNNMARVGTLVLCLHDSADALLEAAKMANYAKFQKMCDLLFVMFAVVFITTRLGIFPLWVLNTTLFESWEIVGPYPSWWVFNLLLLLVQGLNCFWSYLIVKIACKAVSRGKVSKDDRSDIESSSDEEDSEPPGKNNGTSGTNGYLLTGSCSMDD
For B4, the binding entry in assay [4] is given as “binds”.

B5: CerS6^Δ366–372-Flag (enzyme, UniProt Q6ZMG9)
chain: B4 chain with N359P, G360H, S362A, G363T, N365T
On to B5, for which the binding entry in assay [5] is on record as “binds”.

Source of the values: PMC8789539.
